Source: patent CN112028997A
No constants are given. Whether binding was seen depends on the method and setting. Some entries that bind do so weakly or less than the wild type.

Protein sequences, listed by entry. Tags and fused reporters are not part of them. Residues count along the entry.
UniProt P06731, residues 35-685: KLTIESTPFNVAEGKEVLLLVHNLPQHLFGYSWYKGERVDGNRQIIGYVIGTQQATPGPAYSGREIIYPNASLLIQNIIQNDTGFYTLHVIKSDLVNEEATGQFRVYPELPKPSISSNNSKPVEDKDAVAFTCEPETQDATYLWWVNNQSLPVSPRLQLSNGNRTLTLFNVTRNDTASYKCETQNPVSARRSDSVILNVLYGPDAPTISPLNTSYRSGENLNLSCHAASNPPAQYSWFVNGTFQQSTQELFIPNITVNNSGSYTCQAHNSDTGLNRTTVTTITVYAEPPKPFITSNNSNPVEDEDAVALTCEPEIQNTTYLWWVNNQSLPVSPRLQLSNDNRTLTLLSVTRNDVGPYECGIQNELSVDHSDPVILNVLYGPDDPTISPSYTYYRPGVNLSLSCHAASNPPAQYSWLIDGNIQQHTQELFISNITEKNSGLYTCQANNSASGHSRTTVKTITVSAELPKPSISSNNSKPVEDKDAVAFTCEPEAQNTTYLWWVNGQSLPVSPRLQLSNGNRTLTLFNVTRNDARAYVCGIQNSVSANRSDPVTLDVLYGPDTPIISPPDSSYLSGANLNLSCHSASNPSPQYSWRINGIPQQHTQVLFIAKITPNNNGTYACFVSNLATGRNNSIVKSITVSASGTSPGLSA

B1: CEACAM5纳米抗体 B80 (VHH)
VHH: QVQLVESGGGLVQPGGSLRLSCAASGFSLDYYAIGWFRQAPGKEREGVSCITSSGSTNYADSVKGRFTISRDNAKNTVYLQMNSLKPEDTAVYYCGTCFEGLGPEQVNDYWGQGTQVTVSS
B2: CEACAM5纳米抗体 B95 (VHH)
VHH: EVQVVESGGGLVQAGGSLKLSCAASFDTFSIHAMGWYRQVPGKQRELVAAITSSGGTNYADSVKGRFTISRDNAKNTVYLQMNSLKPGDTAVYYCNEPFRLFDWGQGTQVTVSS
B3: CEACAM5纳米抗体 B41 (VHH)
VHH: QLQLVESGGGLVQAGGSLRLSCAASGSLFRINAMAWFRQAPGKQRELVAAITSAGSTNYADFVKGRFTISADNAKNTLYLQMNSLKPEDTAVYYCNTPWPVGRDYWGQGTQVTVSS
B4: CEACAM5纳米抗体 B47 (VHH)
VHH: EVQLVESGGGLVQAGGSLRLSCKASGSIDMTDFMAWYRQAPGKEREIVAVIRPDGSPDYLQSVKGRFTISTDNAKRSLYLQMNSLKPEDTAVYLCNYVLQYKNYWGQGTQVTVSS
B5: CEACAM5纳米抗体 A94 (VHH)
VHH: EVQVVESGGGLVQPGGSLRLSCTASGRSFSSYTYGMGWFRQAPGEEREFVAGISTSGGTAAYATSVKGRFTISRDNAKNTVYLQMNSLKPEDTGVYYCAATSMTWYGNNRASEYAYWGQGTQVTVSS
B6: CEACAM5纳米抗体 B7 (VHH)
VHH: EVQLVESGGGLVPAGGSLRLSCAASISIFSIDAMGWFRQAPGKQRELVAAITTVGSANYADSVKGRFTISRDNAKNTVYLQMNSLKPEDTAVYYCNAVWGHWDWGQGTQVTVSS

molecular target: 重组CEACAM5蛋白 (UniProt P06731); assay: phage display panning and monoclonal phage ELISA on coated recombinant CEACAM5

binding | Binder
binds | B1
binds | B2
binds | B3
binds | B4
binds | B5
binds | B6
